Values of other authors, collected in US11000708B2 (priority 2015, dated 2021).
Some of these results come from one statement about several compounds together.

Tested on: M. tuberculosis H37Rv (ATCC 27294)
Settings: reported abroad; cited from earlier work

With `CCC(=O)O[C@@H]1CC(=O)O[C@H](C)C/C=C/C=C/[C@H](O)[C@H](C)C[C@H](CC=O)[C@H](O[C@@H]2O[C@H](C)[C@@H](O[C@H]3C[C@@](C)(O)[C@@H](OC(=O)CC)[C@H](C)O3)[C@H](N(C)C)[C@H]2O)[C@H]1OC` [medemycin] as the molecule, how does the MIC read?
The MIC was “greater than 100 micrograms/milliliter”.
